The values that follow come from PMC12559329.

Amino acid sequences for entries named in this document (tags omitted). A change or cut given only in a name is not applied to a line headed by its entry.
UniProt P40692: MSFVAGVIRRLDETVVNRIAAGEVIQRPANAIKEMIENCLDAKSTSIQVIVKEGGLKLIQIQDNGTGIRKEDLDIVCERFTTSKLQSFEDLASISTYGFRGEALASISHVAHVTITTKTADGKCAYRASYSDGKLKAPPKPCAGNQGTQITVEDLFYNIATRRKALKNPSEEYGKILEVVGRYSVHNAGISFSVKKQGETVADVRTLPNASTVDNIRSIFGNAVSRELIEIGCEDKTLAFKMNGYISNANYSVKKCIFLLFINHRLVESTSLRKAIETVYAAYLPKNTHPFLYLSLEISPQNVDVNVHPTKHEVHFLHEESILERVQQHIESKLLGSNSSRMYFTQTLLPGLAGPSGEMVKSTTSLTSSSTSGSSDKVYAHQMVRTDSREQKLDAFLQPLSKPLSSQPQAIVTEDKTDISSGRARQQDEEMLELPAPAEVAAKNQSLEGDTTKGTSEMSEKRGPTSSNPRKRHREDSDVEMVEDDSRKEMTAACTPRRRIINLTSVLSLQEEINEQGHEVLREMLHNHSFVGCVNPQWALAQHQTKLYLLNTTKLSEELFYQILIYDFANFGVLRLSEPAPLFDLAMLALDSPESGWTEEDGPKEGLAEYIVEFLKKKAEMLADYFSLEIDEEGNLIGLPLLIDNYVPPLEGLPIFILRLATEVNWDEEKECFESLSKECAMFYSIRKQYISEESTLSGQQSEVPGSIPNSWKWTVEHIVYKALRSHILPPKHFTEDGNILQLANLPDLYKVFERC
UniProt Q9UHC1: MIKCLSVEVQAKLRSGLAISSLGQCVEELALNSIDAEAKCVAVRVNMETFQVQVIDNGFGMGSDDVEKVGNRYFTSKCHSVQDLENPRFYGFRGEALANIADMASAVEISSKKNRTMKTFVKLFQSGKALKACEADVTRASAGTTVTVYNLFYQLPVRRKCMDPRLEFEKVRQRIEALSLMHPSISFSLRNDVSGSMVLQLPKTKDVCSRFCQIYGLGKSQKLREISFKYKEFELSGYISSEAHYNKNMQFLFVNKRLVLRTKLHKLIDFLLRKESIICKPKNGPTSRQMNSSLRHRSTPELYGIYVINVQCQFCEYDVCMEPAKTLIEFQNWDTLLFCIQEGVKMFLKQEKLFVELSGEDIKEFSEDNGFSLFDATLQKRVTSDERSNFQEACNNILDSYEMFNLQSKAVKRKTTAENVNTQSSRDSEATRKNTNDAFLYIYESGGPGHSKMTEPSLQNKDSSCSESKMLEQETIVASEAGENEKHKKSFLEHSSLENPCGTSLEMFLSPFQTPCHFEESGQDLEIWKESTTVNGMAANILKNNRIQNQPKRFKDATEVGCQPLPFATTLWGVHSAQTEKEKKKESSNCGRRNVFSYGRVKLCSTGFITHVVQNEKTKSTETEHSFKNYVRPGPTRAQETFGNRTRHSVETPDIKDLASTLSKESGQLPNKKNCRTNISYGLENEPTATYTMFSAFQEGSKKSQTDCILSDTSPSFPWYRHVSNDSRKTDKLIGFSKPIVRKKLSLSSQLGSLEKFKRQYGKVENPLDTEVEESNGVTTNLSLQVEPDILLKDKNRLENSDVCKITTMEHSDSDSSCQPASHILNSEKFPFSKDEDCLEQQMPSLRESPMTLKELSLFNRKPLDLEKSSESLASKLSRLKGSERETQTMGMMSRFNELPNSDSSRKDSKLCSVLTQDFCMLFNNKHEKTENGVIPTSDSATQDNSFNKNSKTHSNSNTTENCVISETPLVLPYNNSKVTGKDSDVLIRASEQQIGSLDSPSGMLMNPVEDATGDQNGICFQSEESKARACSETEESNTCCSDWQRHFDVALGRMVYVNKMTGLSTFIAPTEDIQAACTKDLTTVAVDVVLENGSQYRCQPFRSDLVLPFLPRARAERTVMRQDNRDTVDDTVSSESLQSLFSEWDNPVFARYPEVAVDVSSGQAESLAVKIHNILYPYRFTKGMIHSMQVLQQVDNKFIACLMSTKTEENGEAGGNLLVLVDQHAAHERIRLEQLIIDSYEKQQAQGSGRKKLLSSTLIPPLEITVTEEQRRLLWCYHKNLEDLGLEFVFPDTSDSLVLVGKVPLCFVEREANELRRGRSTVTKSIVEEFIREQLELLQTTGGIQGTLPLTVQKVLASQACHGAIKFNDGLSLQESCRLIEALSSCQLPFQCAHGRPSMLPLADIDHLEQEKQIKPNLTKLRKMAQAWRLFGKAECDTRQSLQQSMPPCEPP

This assay has as its target MutLγ (MLH1-MLH3) heterodimer, human (human) (UniProt P40692+Q9UHC1). The assay can be described thus: condition: 1 µg of recombinant MBP-FAN1-MIP-MIM in 70 µl; pull-down; 1 µg recombinant MLH1-MLH3 held by anti-MLH1 antibody on protein G magnetic beads; 1 µg MSH2-MSH3, MBP-FAN1 or MBP-FAN1-MIP-MIM added alone, or MSH2-MSH3 for 20 min followed by MBP-FAN1 or MBP-FAN1-MIP-MIM, in 70 µl immunoprecipitation buffer (25 mM Tris-HCl pH 7.5, 3 mM EDTA, 1 mM DTT, 0.2 µg/µl albumin, 70 mM NaCl), 4 °C, 1 h in all; washes with 100 mM NaCl, 0.1% Triton X-100; western blot (anti-MBP, anti-FLAG); both purified.

No constants are given. Whether binding was seen depends on the method and setting.

As for “MBP-tagged MLH1-binding defective FAN1 MIP-MIM (Y128A, F129A, L155A, L159A) (from UniProt Q9Y2M0 1-1017) (enzyme)”, the binding result is recorded as “no binding”.
